The source of these data is PMC12866823, “The Pivotal Role of GR‐CAR Pathway in Fetal Programming of Hepatic Cytochrome P450 3A Alteration in Adulthood” (Advanced Science, 2025).

The structures appear in SMILES notation.

This data set is described as follows: in vivo. To be noted: male, Wistar, rat, po, 10 mg/kg.

`COC(=O)C1=C(C)NC(C)=C(C(=O)OC)C1c1ccccc1[N+](=O)[O-]` [nifedipine] gave a half-life of 24.8 ± 38.5 h. Further, under “MRT 0-24”, the MRT last is 8.8 ± 0.9 h.
